The supplement of paper PMC8728848
The other results are listed elsewhere or left out.

Key:
Assay in all cases: glycan array binding signal (z-score within array); higher = stronger binding
Conditions in all cases: glycan notation: IUPAC condensed, linker removed
[1] = target: Man(a1-2)Man(a1-3)[Man(a1-2)Man(a1-6)]Man
Outline: (§1)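 Glycan array binding is given as a within-array Z-score, which can be read as non-binding when negative. The arrays, 3228 of them, came from the Consortium for Functional Glycomics database and were retained only where the protein sequence was available. Z-scores were averaged across arrays of the same protein sequence at different concentrations or buffers and across linkers.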

[2] = target: Man(a1-2)Man(a1-3)[Man(a1-2)Man(a1-6)]Man(a1-6)[Man(a1-2)Man(a1-2)Man(a1-3)]Man
Outline: as §1

[3] = target: Man(a1-2)Man(a1-3)[Man(a1-2)Man(a1-6)]Man(a1-6)[Man(a1-2)Man(a1-2)Man(a1-3)]Man(b1-4)GlcNAc(b1-4)GlcNAc
Outline: as §1

[4] = target: Man(a1-2)Man(a1-3)[Man(a1-6)]Man(a1-6)[Man(a1-2)Man(a1-3)]Man(b1-4)GlcNAc(b1-4)GlcNAc
Outline: as §1

[5] = target: Man(a1-2)Man(a1-6)[Man(a1-3)]Man(a1-6)[Man(a1-2)Man(a1-2)Man(a1-3)]Man
Outline: as §1

[6] = target: Man(a1-2)Man(a1-6)[Man(a1-3)]Man(a1-6)[Man(a1-2)Man(a1-2)Man(a1-3)]Man(b1-4)GlcNAc(b1-4)GlcNAc
Outline: as §1

[7] = target: Man(a1-3)[Man(a1-6)]Man
Outline: as §1

[8] = target: Man(a1-3)[Man(a1-6)]Man(a1-6)[Man(a1-2)Man(a1-3)]Man(b1-4)GlcNAc(b1-4)GlcNAc
Outline: as §1

[9] = target: Man(a1-3)[Man(a1-6)]Man(a1-6)[Man(a1-3)]Man
Outline: as §1

[10] = target: Man(a1-3)[Man(a1-6)]Man(a1-6)[Man(a1-3)]Man(b1-4)GlcNAc(b1-4)GlcNAc
Outline: as §1

[11] = target: Man(a1-3)[Man(a1-6)]Man(b1-4)GlcNAc(b1-4)GlcNAc
Outline: as §1

[12] = target: Man(a1-3)[Man(a1-6)]Man(b1-4)GlcNAc(b1-4)[Fuc(a1-6)]GlcNAc
Outline: as §1

[13] = target: Man(a1-6)Man
Outline: as §1

[14] = target: Man(b1-4)GlcNAc
Outline: as §1

[15] = target: MurNAc(b1-4)GlcNAc
Outline: as §1

[16] = target: Neu5Ac(a2-3)Gal
Outline: as §1

[17] = target: Neu5Ac(a2-3)Gal(b1-3)GalNAc
Outline: as §1

[18] = target: Neu5Ac(a2-3)Gal(b1-3)GalNAc(b1-3)Gal(a1-4)Gal(b1-4)Glc
Outline: as §1

[19] = target: Neu5Ac(a2-3)Gal(b1-3)GalNAc(b1-4)Gal(b1-4)Glc
Outline: as §1

[20] = target: Neu5Ac(a2-3)Gal(b1-3)GalNAc(b1-4)[Neu5Ac(a2-3)]Gal(b1-4)Glc
Outline: as §1

[21] = target: Neu5Ac(a2-3)Gal(b1-3)GalNAc(b1-4)[Neu5Ac(a2-8)Neu5Ac(a2-3)]Gal(b1-4)Glc
Outline: as §1

[22] = target: Neu5Ac(a2-3)Gal(b1-3)GalNAc6S
Outline: as §1

[23] = target: Neu5Ac(a2-3)Gal(b1-3)GlcNAc
Outline: as §1

[24] = target: Neu5Ac(a2-3)Gal(b1-3)GlcNAc(b1-2)Man
Outline: as §1

[25] = target: Neu5Ac(a2-3)Gal(b1-3)GlcNAc(b1-2)Man(a1-3)[GlcNAc(b1-4)][Neu5Ac(a2-3)Gal(b1-3)GlcNAc(b1-2)Man(a1-6)]Man(b1-4)GlcNAc(b1-4)GlcNAc
Outline: as §1

[26] = target: Neu5Ac(a2-3)Gal(b1-3)GlcNAc(b1-2)Man(a1-3)[Neu5Ac(a2-3)Gal(b1-3)GlcNAc(b1-2)Man(a1-6)]Man(b1-4)GlcNAc(b1-4)GlcNAc
Outline: as §1

[27] = target: Neu5Ac(a2-3)Gal(b1-3)GlcNAc(b1-2)[Neu5Ac(a2-3)Gal(b1-3)GlcNAc(b1-4)]Man(a1-6)[Neu5Ac(a2-3)Gal(b1-3)GlcNAc(b1-2)Man(a1-3)]Man(b1-4)GlcNAc(b1-4)GlcNAc
Outline: as §1

[28] = target: Neu5Ac(a2-3)Gal(b1-3)GlcNAc(b1-3)Gal(b1-3)GlcNAc
Outline: as §1

[29] = target: Neu5Ac(a2-3)Gal(b1-3)GlcNAc(b1-3)Gal(b1-4)GlcNAc
Outline: as §1

[30] = target: Neu5Ac(a2-3)Gal(b1-3)GlcNAc(b1-3)GalNAc
Outline: as §1

[31] = target: Neu5Ac(a2-3)Gal(b1-3)GlcNAc(b1-6)GalNAc
Outline: as §1

[32] = target: Neu5Ac(a2-3)Gal(b1-3)GlcNAc6S
Outline: as §1

[33] = target: Neu5Ac(a2-3)Gal(b1-3)[Fuc(a1-4)]GlcNAc
Outline: as §1

[34] = target: Neu5Ac(a2-3)Gal(b1-3)[Fuc(a1-4)]GlcNAc(b1-3)Gal(b1-3)[Fuc(a1-4)]GlcNAc
Outline: as §1

[35] = target: Neu5Ac(a2-3)Gal(b1-3)[Fuc(a1-4)]GlcNAc(b1-3)Gal(b1-4)[Fuc(a1-3)]GlcNAc
Outline: as §1

[36] = target: Neu5Ac(a2-3)Gal(b1-3)[GlcNAc(b1-6)]GalNAc
Outline: as §1

[37] = target: Neu5Ac(a2-3)Gal(b1-3)[Neu5Ac(a2-6)]GalNAc
Outline: as §1

[38] = target: Neu5Ac(a2-3)Gal(b1-3)[Neu5Ac(a2-6)]GlcNAc(b1-3)[Fuc(a1-3)[Gal(b1-4)]GlcNAc(b1-6)]Gal(b1-4)Glc
Outline: as §1

[39] = target: Neu5Ac(a2-3)Gal(b1-3)]Neu5Ac(a2-3)Gal(b1-4)]GlcNAc
Outline: as §1

[40] = target: Neu5Ac(a2-3)Gal(b1-4)Glc
Outline: as §1

[41] = target: Neu5Ac(a2-3)Gal(b1-4)GlcNAc
Outline: as §1

[42] = target: Neu5Ac(a2-3)Gal(b1-4)GlcNAc(b1-2)Man
Outline: as §1

[43] = target: Neu5Ac(a2-3)Gal(b1-4)GlcNAc(b1-2)Man(a1-3)[GlcNAc(b1-4)][Neu5Ac(a2-3)Gal(b1-4)GlcNAc(b1-2)Man(a1-6)]Man(b1-4)GlcNAc(b1-4)GlcNAc
Outline: as §1

[44] = target: Neu5Ac(a2-3)Gal(b1-4)GlcNAc(b1-2)Man(a1-3)[Neu5Ac(a2-3)Gal(b1-4)GlcNAc(b1-2)Man(a1-6)]Man(b1-4)GlcNAc(b1-4)GlcNAc
Outline: as §1

[45] = target: Neu5Ac(a2-3)Gal(b1-4)GlcNAc(b1-2)Man(a1-3)[Neu5Ac(a2-3)Gal(b1-4)GlcNAc(b1-2)Man(a1-6)]Man(b1-4)GlcNAc(b1-4)[Fuc(a1-6)]GlcNAc
Outline: as §1

B1: Epa11 (Candida glabrata) (protein)
chain: MGSSHHHHHHSSGLVPRGSHMASSNAPNYPVGCSPSVGTQLTPGLSLEVYAYPMDGNNGYCWNATYKDPEFPRSGYLKNKLLGKADGVVGPLNFLAKNKDCSPKVDTLPAGFNFPQPITVTNFTMVLFGYLAPKQSGKYTFKLLADDLLLLNLGATNAFDCCNREATKNNLGEFLAYNLWPNQDKNVTVYLEKGVYYPLRLFFNNRDGGSQLDFSYYFNDSPAPLTDFSGMFFSVPDGAECPARI
[1]
  glycan array binding signal (z-score): -0.219
[2]
  glycan array binding signal (z-score): -0.818
[3]
  glycan array binding signal (z-score): -0.611
[4]
  glycan array binding signal (z-score): -0.187
[5]
  glycan array binding signal (z-score): -0.603
[6]
  glycan array binding signal (z-score): 0.349
[7]
  glycan array binding signal (z-score): -0.134
[8]
  glycan array binding signal (z-score): -0.03
[9]
  glycan array binding signal (z-score): -0.318
[10]
  glycan array binding signal (z-score): 0.237
[11]
  glycan array binding signal (z-score): -0.227
[12]
  glycan array binding signal (z-score): 5.52
[13]
  glycan array binding signal (z-score): -0.693
[14]
  glycan array binding signal (z-score): 0.037
[15]
  glycan array binding signal (z-score): -0.006
[16]
  glycan array binding signal (z-score): -0.641
[17]
  glycan array binding signal (z-score): 0.012
[18]
  glycan array binding signal (z-score): -0.211
[19]
  glycan array binding signal (z-score): -0.466
[20]
  glycan array binding signal (z-score): 0.272
[21]
  glycan array binding signal (z-score): -0.07
[22]
  glycan array binding signal (z-score): -0.108
[23]
  glycan array binding signal (z-score): -0.153
[24]
  glycan array binding signal (z-score): -0.819
[25]
  glycan array binding signal (z-score): 2.81
[26]
  glycan array binding signal (z-score): -0.279
[27]
  glycan array binding signal (z-score): -0.601
[28]
  glycan array binding signal (z-score): -1.03
[29]
  glycan array binding signal (z-score): -0.336
[30]
  glycan array binding signal (z-score): 0.127
[31]
  glycan array binding signal (z-score): 0.52
[32]
  glycan array binding signal (z-score): 0.733
[33]
  glycan array binding signal (z-score): -0.534
[34]
  glycan array binding signal (z-score): -0.051
[35]
  glycan array binding signal (z-score): 0.483
[36]
  glycan array binding signal (z-score): 0.812
[37]
  glycan array binding signal (z-score): -0.174
[38]
  glycan array binding signal (z-score): 0.375
[39]
  glycan array binding signal (z-score): -0.098
[40]
  glycan array binding signal (z-score): 0.127
[41]
  glycan array binding signal (z-score): -0.412
[42]
  glycan array binding signal (z-score): 1.13
[43]
  glycan array binding signal (z-score): 0.229
[44]
  glycan array binding signal (z-score): -0.133
[45]
  glycan array binding signal (z-score): -0.195
